# In PubChem BioAssay (Tox21):
# Most of the hits are listed elsewhere, so they are rarer here than in the full data. Inconclusive results are not listed. The source made the active and inactive calls. The call rests on the fitted dose curve; in most records, active means well fitted curve in the direction sought with a large enough effect in the repeat runs; inconclusive means weak or mixed curves; inactive means no such curve, though single readings can be large; an effect the other way counts as inactive or inconclusive.
# Tests used:
# [1] = qHTS assay to identify aromatase inhibitors - cell viability counter screen (AID 743084); settings: MCF-7 aro ERE viability, CellTiter-Fluor, 24 h; at 70.3 µM (top of the series);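 further: cells stimulated with testosterone during compound exposure; nearly all actives have a fitted effect of over 55% in size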
# [2] = qHTS assay to identify small molecule HDAC inhibitors - cell viability counter screen (AID 1259365); settings: HCT-116 viability, CellTiter-Glo ATP luminescence, 2 h; at 42.5 µM (top of the series); further: nearly all actives have a fitted effect of over 50% in size
# Outline: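 Measured quantity is CellTiter-Glo luminescence from wild-type HCT-116 cells after compound incubation of 2hr at 37C, 5% CO2; reagent developed 30min at room temperature.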
# On the % scale 0 is the no-effect control and ±100 the full control effect.
compound,measurement,setting,value
O=C(CCCCCCC(=O)Nc1ccccc1)NO,"activity change, negative = cytotoxicity",[1],inactive: -28%
same,"activity change, negative = cytotoxicity",[2],inactive: 0.79%
